The list is a part of this screen's results and no random one: it is rich in T/C values a quarter to a half above the control, in often repeated tests (any T/C) and in doses without a T/C. Other doses and runs of a compound stand elsewhere. T/C: endpoint of the treated group in % of that of the vehicle group. Some entries give survivors of the animals treated and no T/C: the source files T/C as zero there, which appears to mark a toxic dose or a test without result, not a measured value. Some doses without a T/C left all or most animals alive at the check, yet need not have been tolerated: survival well below the control is almost never listed, so the zero probably covers shortened survival too. Survivors were counted at the toxicity check, usually on the fifth day, unless a day is given; later deaths do not show. Schedule codes are those of the source, taken here to give the interval after Q, in days (D) or hours (H), and the number of doses after X. Where survival is the endpoint, the PubChem record calls one and a half times the control and up active, and a quarter to a half above the control has no call in these data; cut-offs in other NCI protocols can differ. Some schedules carry Z or #; the key to these is not given. Some T/C values are followed by the survivors on the day toxicity was checked, most often the fifth; without a count, all were alive then.
Test system: mice, LPC-1 plasma cell tumor ip, median survival T/C
Assay: NCI In Vivo Anticancer Drug Screen. Data for tumor model Lieberman Plasma Cell No. 1 (LPC-1) (intraperitoneal) in unknown mice
Conditions: T/C endpoint: median survival time, higher T/C = longer survival
Procedure: The antitumor activity of compounds was measured in mice bearing transplantable tumors. Survival or tumor size were measured and the results are expressed as the measurement made in the treated group (T) divided by the measurement made in the vehicle treated control group (C). The tumor model used in this assay is Lieberman Plasma Cell No. 1 (LPC-1) (intraperitoneal) in unknown mice

[1] = dose: 65.0 mg/kg/injection, schedule: Q01DX015 (sc), vehicle: carboxymethylcellulose (CMC)
[2] = dose: 108.0 mg/kg/injection, schedule: Q01DX015 (sc), vehicle: carboxymethylcellulose (CMC)
[3] = dose: 14.0 mg/kg/injection, schedule: Q01DX028 (sc), vehicle: carboxymethylcellulose (CMC)
[4] = dose: 50.0 mg/kg/injection, schedule: Q01DX028 (sc), vehicle: carboxymethylcellulose (CMC)
[5] = dose: 200.0 mg/kg/injection, schedule: Q01DX028 (sc), vehicle: saline

**Q.** For `Cc1cc(N(CCCl)CCCl)ccc1C=Nc1ccc(F)cc1`, which survivor count [1] is on record?
**A.** 6 of 10

**Q.** And the survivor count [2]?
**A.** 6 of 10

**Q.** What about the survivor count (dose: 180.0 mg/kg/injection, schedule: Q01DX015 (sc), vehicle: carboxymethylcellulose (CMC)) of the same compound?
**A.** 4 of 10

**Q.** And the survivor count (dose: 300.0 mg/kg/injection, schedule: Q01DX015 (sc), vehicle: carboxymethylcellulose (CMC))?
**A.** 5 of 10

**Q.** With `CC[C@H]1CN2CCc3cc(OC)c(OC)cc3[C@@H]2C[C@@H]1C[C@H]1NCCc2cc(OC)c(OC)cc21` as the compound, how does the survivor count (dose: 8.0 mg/kg/injection, schedule: Q01DX028 (sc), vehicle: saline) read?
**A.** 8 of 8

**Q.** And the survivor count (dose: 16.0 mg/kg/injection, schedule: Q01DX028 (sc), vehicle: saline)?
**A.** 6 of 6

**Q.** For `CO[C@H](C(=O)[C@@H](O)[C@@H](C)O)[C@@H]1Cc2cc3cc(OC4CC(OC5CC(O)C(O)C(C)O5)C(O)C(C)O4)c(C)c(O)c3c(O)c2C(=O)[C@H]1OC1CC(OC2CC(OC3CC(C)(O)C(O)C(C)O3)C(O)C(C)O2)C(O)C(C)O1` (stereo partly drawn), which survivor count (dose: 0.6 mg/kg/injection, schedule: Q01DX028 (sc), vehicle: saline) is on record?
**A.** 5 of 10

**Q.** What about the survivor count (dose: 0.8 mg/kg/injection, schedule: Q01DX028 (sc), vehicle: saline) of the same compound?
**A.** 2 of 10

**Q.** Which results are given for `O=c1ccc2cc(O)c(O)cc2o1`?
**A.** T/C (dose: 16.0 mg/kg/injection, schedule: Q01DX028 (sc), vehicle: steroid suspending solution): 138 % of control; survivor count (dose: 124.0 mg/kg/injection, schedule: Q01DX028 (sc), vehicle: steroid suspending solution): 5 of 10

**Q.** How did the T/C (dose: 16.0 mg/kg/injection, schedule: Q01DX003 (sc), vehicle: saline) turn out when `O=c1[nH]cc(F)c(=O)[nH]1` was run?
**A.** 125 % of control [9 of 10 alive]

**Q.** And the T/C (dose: 16.0 mg/kg/injection, schedule: Q01DX004 (sc), vehicle: saline)?
**A.** 130 % of control

**Q.** What about the T/C (dose: 24.0 mg/kg/injection, schedule: Q01DX024 (sc), vehicle: saline) of the same compound?
**A.** 146 % of control

**Q.** And the T/C (dose: 24.0 mg/kg/injection, schedule: Q## X008 (sc), vehicle: saline)?
**A.** 143 % of control

**Q.** And the T/C (dose: 26.7 mg/kg/injection, schedule: Q01DX003 (sc), vehicle: saline)?
**A.** 137 % of control

**Q.** And the T/C (dose: 44.5 mg/kg/injection, schedule: Q01DX001 (sc), vehicle: saline)?
**A.** 130 % of control

**Q.** And the T/C (dose: 44.5 mg/kg/injection, schedule: Q01DX002 (sc), vehicle: saline)?
**A.** 132 % of control [9 of 10 alive]

**Q.** What about the T/C (dose: 48.0 mg/kg/injection, schedule: Q## X008 (sc), vehicle: saline) of the same compound?
**A.** 146 % of control

**Q.** What about the T/C (dose: 48.0 mg/kg/injection, schedule: Q## X012 (sc), vehicle: saline) of the same compound?
**A.** 134 % of control

**Q.** `COC12C(COC(N)=O)C3=C(C(=O)C(C)=C(N)C3=O)N1CC1C2N1C` (stereo not drawn) was tested. Which T/C (dose: 1.3 mg/kg/injection, schedule: Q01DX028 (sc), vehicle: saline) did it give?
**A.** 129 % of control

**Q.** Which results are given for `O=C(O)CCc1c[nH]c2ccc(N(CCCl)CCCl)cc12`?
**A.** T/C (dose: 4.0 mg/kg/injection, schedule: Q01DX028 (sc), vehicle: carboxymethylcellulose (CMC)): 139 % of control; T/C (dose: 8.4 mg/kg/injection, schedule: Q01DX028 (sc), vehicle: carboxymethylcellulose (CMC)): 135 % of control; survivor count [3]: 8 of 8

**Q.** Which results are given for `O=NN(CCCl)C(=O)NC1CCCCC1`?
**A.** T/C (dose: 10.0 mg/kg/injection, schedule: Q01DX028 (sc), vehicle: carboxymethylcellulose (CMC)): 129 % of control; T/C [3]: 129 % of control; T/C (dose: 33.0 mg/kg/injection, schedule: Q01DX028 (sc), vehicle: carboxymethylcellulose (CMC)): 131 % of control [9 of 10 alive]; survivor count [4]: 6 of 10

**Q.** How did the survivor count (dose: 16.0 mg/kg/injection, schedule: Q01DX028 (sc), vehicle: methylcellulose (MC)) turn out when `CCN(CC)c1ccc2cc3ccc(=[N+](CC)CC)cc-3oc2c1` was run?
**A.** 10 of 10

**Q.** How did the survivor count (dose: 23.0 mg/kg/injection, schedule: Q01DX028 (sc), vehicle: saline) turn out when `Nc1nncs1` was run?
**A.** 6 of 10

**Q.** And the survivor count (dose: 35.0 mg/kg/injection, schedule: Q01DX028 (sc), vehicle: saline)?
**A.** 6 of 10

**Q.** And the survivor count (dose: 53.0 mg/kg/injection, schedule: Q01DX028 (sc), vehicle: saline)?
**A.** 3 of 10

**Q.** What about the survivor count (dose: 80.0 mg/kg/injection, schedule: Q01DX028 (sc), vehicle: saline) of the same compound?
**A.** 0 of 10

**Q.** How did the survivor count (dose: 39.0 mg/kg/injection, schedule: Q01DX015 (sc), vehicle: carboxymethylcellulose (CMC)) turn out when `Cc1cc(N(CCCl)CCCl)ccc1C=Nc1ccccc1-c1ccccc1` was run?
**A.** 6 of 10

**Q.** What about the survivor count [1] of the same compound?
**A.** 2 of 10

**Q.** What about the survivor count [2] of the same compound?
**A.** 3 of 10

**Q.** `CC(C)=CCC/C(C)=C/Cc1cc2ccc(=O)oc2cc1O` was tested. Which survivor count (dose: 6.25 mg/kg/injection, schedule: Q01DX028 (sc), vehicle: saline) did it give?
**A.** 5 of 8

**Q.** And the survivor count (dose: 12.5 mg/kg/injection, schedule: Q01DX028 (sc), vehicle: saline)?
**A.** 3 of 8

**Q.** What about the survivor count (dose: 25.0 mg/kg/injection, schedule: Q01DX028 (sc), vehicle: saline) of the same compound?
**A.** 4 of 8

**Q.** And the survivor count (dose: 50.0 mg/kg/injection, schedule: Q01DX028 (sc), vehicle: saline)?
**A.** 5 of 8

**Q.** Which results are given for `C[C@]12C=CC(=O)C=C1CC[C@@H]1[C@@H]2C(=O)C[C@@]2(C)[C@H]1CC[C@]2(O)C(=O)CO`?
**A.** survivor count (dose: 8.0 mg/kg/injection, schedule: Q01DX028 (sc), vehicle: water): 9 of 12; survivor count (dose: 64.0 mg/kg/injection, schedule: Q01DX028 (sc), vehicle: water): 11 of 12; survivor count (dose: 100.0 mg/kg/injection, schedule: Q01DX028 (sc), vehicle: water): 5 of 9

**Q.** How did the T/C (dose: 6.25 mg/kg/injection, schedule: Q01DX028 (sc), vehicle: carboxymethylcellulose (CMC)) turn out when `Cn1cnc([N+](=O)[O-])c1Sc1ncnc2nc[nH]c12` was run?
**A.** 129 % of control [9 of 10 alive]

**Q.** What about the T/C (dose: 12.5 mg/kg/injection, schedule: Q01DX028 (sc), vehicle: carboxymethylcellulose (CMC)) of the same compound?
**A.** 147 % of control

**Q.** What about the T/C (dose: 25.0 mg/kg/injection, schedule: Q01DX028 (sc), vehicle: carboxymethylcellulose (CMC)) of the same compound?
**A.** 125 % of control [9 of 10 alive]

**Q.** `CS(=O)(=O)OCCN(CCOS(C)(=O)=O)c1ccccc1` was tested. Which survivor count [4] did it give?
**A.** 7 of 8

**Q.** And the survivor count (dose: 75.0 mg/kg/injection, schedule: Q01DX028 (sc), vehicle: carboxymethylcellulose (CMC))?
**A.** 1 of 8

**Q.** What does the source list for `CN[C@H]1CCc2cc(OC)c(OC)c(OC)c2-c2ccc(OC)c(=O)cc21`?
**A.** survivor count (dose: 2.5 mg/kg/injection, schedule: Q01DX015 (sc), vehicle: saline): 3 of 10; survivor count (dose: 5.0 mg/kg/injection, schedule: Q01DX015 (sc), vehicle: saline): 4 of 10; survivor count (dose: 5.0 mg/kg/injection, schedule: Q01DX028 (sc), vehicle: saline): 7 of 12; survivor count (dose: 10.0 mg/kg/injection, schedule: Q01DX028 (sc), vehicle: saline): 6 of 12

**Q.** With `CS(=O)(=O)OCCN(CCOS(C)(=O)=O)c1ccc(/C=N/Nc2ncnc3nc[nH]c23)cc1` as the compound, how does the T/C (dose: 24.0 mg/kg/injection, schedule: Q01DX028 (sc), vehicle: carboxymethylcellulose (CMC)) read?
**A.** 142 % of control

**Q.** And the T/C (dose: 40.0 mg/kg/injection, schedule: Q03HX056 (sc), vehicle: other)?
**A.** 147 % of control

**Q.** What about the T/C (dose: 120.0 mg/kg/injection, schedule: Q01DX028 (sc), vehicle: carboxymethylcellulose (CMC)) of the same compound?
**A.** 141 % of control

**Q.** What about the T/C (dose: 120.0 mg/kg/injection, schedule: Q01DX028 (sc), vehicle: other) of the same compound?
**A.** 125 % of control

**Q.** And the T/C (dose: 180.0 mg/kg/injection, schedule: Q01DX028 (oral), vehicle: other)?
**A.** 127 % of control

**Q.** And the T/C (dose: 180.0 mg/kg/injection, schedule: Q01DX028 (sc), vehicle: other)?
**A.** 144 % of control [7 of 8 alive]

**Q.** And the T/C (dose: 270.0 mg/kg/injection, schedule: Q01DX028 (sc), vehicle: carboxymethylcellulose (CMC))?
**A.** 138 % of control

**Q.** What about the T/C (dose: 540.0 mg/kg/injection, schedule: Q01DX028 (oral), vehicle: other) of the same compound?
**A.** 133 % of control

**Q.** With `CCOC(N)=O` as the compound, how does the T/C [5] read?
**A.** 139 % of control [8 of 10 alive]

**Q.** What about the T/C (dose: 256.0 mg/kg/injection, schedule: Q01DX028 (sc), vehicle: other) of the same compound?
**A.** 129 % of control

**Q.** And the survivor count (dose: 800.0 mg/kg/injection, schedule: Q01DX028 (sc), vehicle: saline)?
**A.** 6 of 10

**Q.** `CCN(CC)CCNc1ccc(C)c2sc3ccccc3c(=O)c12` (tested in a mixture with another compound) was tested. Which T/C [5] did it give?
**A.** 136 % of control [7 of 8 alive]

From PubChem BioAssay AID344 (DTP/NCI, 2004)
